The list does not hold the whole screen: it is rich in T/C values a quarter to a half above the control, in often repeated tests (any T/C) and in doses without a T/C. Further doses and runs are listed elsewhere. T/C is the treated group as % of the vehicle group. Some doses have a count of surviving animals in place of a T/C: the source files T/C as zero there, which appears to mark a toxic dose or a test without result, not a measured value. Some survivor counts are full or nearly so, which does not show that the dose was tolerated: the source hardly ever lists a survival T/C far under the control, and the zero likely stands for such cases as well. Survivors were counted at the toxicity check, usually on the fifth day, unless a day is given; later deaths do not show. Schedule codes are those of the source, taken here to give the interval after Q, in days (D) or hours (H), and the number of doses after X. Some entries hold several experiments; the results are listed from low to high. For survival time, the PubChem record calls one and a half times the control and up active, and a quarter to a half above the control has no call in these data; cut-offs in other NCI protocols can differ. Brackets with × stand for listed records that agree. Some T/C values are followed by the survivors on the day toxicity was checked, most often the fifth; where none is given, no animal had died by that day. Some schedules carry Z or #; the key to these is not given.
Test system: C57BL/6 mice, intracerebral ependymoblastoma, median survival T/C
Test: NCI In Vivo Anticancer Drug Screen. Data for tumor model Ependymoblastoma (intracerebral) in C57BL/6 mice
Conditions: T/C endpoint: median survival time, higher T/C = longer survival
Experimental: The antitumor activity of compounds was measured in mice bearing transplantable tumors. Survival or tumor size were measured and the results are expressed as the measurement made in the treated group (T) divided by the measurement made in the vehicle treated control group (C). The tumor model used in this assay is Ependymoblastoma (intracerebral) in C57BL/6 mice

[1] = dose: 8.0 mg/kg/injection, schedule: Q01DX005 (ip), vehicle: saline
[2] = dose: 20.0 mg/kg/injection, schedule: Q07DX003 (ip), vehicle: suspension in saline
[3] = dose: 128.0 mg/kg/injection, schedule: Q01DX005 (ip), vehicle: Klucel (hydroxypropylcellulose) (HPC)
[4] = dose: 256.0 mg/kg/injection, schedule: Q01DX005 (ip), vehicle: saline with Tween-80

O=NN(CCCl)C(=O)NC1CCC(=O)NC1=O (stereo unspecified)
T/C (dose: 0.5 mg/kg/injection, schedule: Q01DX005 (ip), vehicle: saline): 105, 112, 116, 126 % of control | T/C (dose: 1.0 mg/kg/injection, schedule: Q01DX005 (ip), vehicle: saline): 122, 137, 142 % of control (2×) | T/C (dose: 2.0 mg/kg/injection, schedule: Q01DX005 (ip), vehicle: Klucel (hydroxypropylcellulose) (HPC)): 134 % of control | T/C (dose: 2.0 mg/kg/injection, schedule: Q01DX005 (ip), vehicle: saline): 155, 196, 208, 250 % of control | T/C (dose: 2.0 mg/kg/injection, schedule: Q01DX005 (ip), vehicle: suspension in saline): 147 % of control [9 of 10 alive] | T/C (dose: 4.0 mg/kg/injection, schedule: Q01DX001 (ip), vehicle: saline): 96 [2 of 10 alive], 106 [6 of 10 alive], 111, 123 % of control | T/C (dose: 4.0 mg/kg/injection, schedule: Q01DX005 (ip), vehicle: saline): 108, 189, 305, 320 % of control | T/C (dose: 4.0 mg/kg/injection, schedule: Q01DX005 (oral), vehicle: Klucel (hydroxypropylcellulose) (HPC)): 142 % of control | survivor count (dose: 7.0 mg/kg/injection, schedule: Q01DX001 (ip), vehicle: saline with Tween-80): 3 of 10 | T/C (dose: 8.0 mg/kg/injection, schedule: Q01DX001 (ip), vehicle: saline): 107 [7 of 10 alive], 109 [5 of 10 alive], 127, 140 % of control | T/C [1]: 89 and 108 % of control | survivor count [1]: 10 of 10 | survivor count (dose: 8.0 mg/kg/injection, schedule: Q01DX005 (ip), vehicle: suspension in saline): 10 of 10 | survivor count (dose: 8.0 mg/kg/injection, schedule: Q01DX005 (oral), vehicle: Klucel (hydroxypropylcellulose) (HPC)): 10 of 10 | T/C (dose: 8.0 mg/kg/injection, schedule: Q#A X002 (ip), vehicle: saline): 147 % of control [7 of 10 alive] | T/C (dose: 10.0 mg/kg/injection, schedule: Q07DX003 (ip), vehicle: saline): 127 % of control | T/C (dose: 10.0 mg/kg/injection, schedule: Q07DX003 (ip), vehicle: suspension in saline): 133, 159, 176, 211, 226 % of control | T/C (dose: 16.0 mg/kg/injection, schedule: Q01DX001 (ip), vehicle: saline): 96 [3 of 10 alive], 105 [4 of 10 alive], 138, 207 % of control | survivor count (dose: 16.0 mg/kg/injection, schedule: Q01DX005 (ip), vehicle: Klucel (hydroxypropylcellulose) (HPC)): 10 of 10 | survivor count (dose: 16.0 mg/kg/injection, schedule: Q01DX005 (ip), vehicle: saline): 10 of 10 | survivor count (dose: 16.0 mg/kg/injection, schedule: Q01DX005 (ip), vehicle: suspension in saline): 10 of 10 | survivor count (dose: 16.0 mg/kg/injection, schedule: Q01DX005 (oral), vehicle: Klucel (hydroxypropylcellulose) (HPC)): 9 of 10 | survivor count (dose: 20.0 mg/kg/injection, schedule: Q07DX003 (ip), vehicle: saline): 8 of 10 | T/C [2]: 90, 95, 135 % of control | survivor count [2]: 7 of 10 and 10 of 10 | T/C (dose: 32.0 mg/kg/injection, schedule: Q01DX001 (ip), vehicle: saline): 104 [3 of 10 alive], 112 [8 of 10 alive], 133, 165 % of control | survivor count (dose: 32.0 mg/kg/injection, schedule: Q01DX005 (oral), vehicle: Klucel (hydroxypropylcellulose) (HPC)): 3 of 10 | T/C (dose: 32.0 mg/kg/injection, schedule: Q#A X002 (ip), vehicle: saline): 127 % of control [6 of 10 alive] | survivor count (dose: 40.0 mg/kg/injection, schedule: Q01DX001 (oral), vehicle: other): 5 of 6 | T/C (dose: 64.0 mg/kg/injection, schedule: Q01DX001 (ip), vehicle: saline): 102 [1 of 10 alive], 102 [5 of 10 alive], 105 [8 of 10 alive], 244 % of control | survivor count (dose: 64.0 mg/kg/injection, schedule: Q01DX005 (oral), vehicle: Klucel (hydroxypropylcellulose) (HPC)): 1 of 10 | survivor count (dose: 80.0 mg/kg/injection, schedule: Q01DX001 (oral), vehicle: other): 1 of 6

O=c1[nH]c(=O)n([C@H]2CCCO2)cc1F
survivor count [3]: 10 of 10 | survivor count (dose: 256.0 mg/kg/injection, schedule: Q01DX005 (ip), vehicle: Klucel (hydroxypropylcellulose) (HPC)): 10 of 10 | survivor count [4]: 10 of 10 | survivor count (dose: 384.0 mg/kg/injection, schedule: Q01DX005 (ip), vehicle: saline with Tween-80): 7 of 10

CCN(CC)CCCC(C)Nc1c2ccc(Cl)cc2nc2ccc(OC)cc12 (stereo unspecified)
survivor count (dose: 128.0 mg/kg/injection, schedule: Q01DX005 (ip), vehicle: saline): 9 of 10 | survivor count [4]: 5 of 10 | survivor count (dose: 256.0 mg/kg/injection, schedule: Q01DX005 (ip), vehicle: saline): 0 of 10 | survivor count (dose: 512.0 mg/kg/injection, schedule: Q01DX005 (ip), vehicle: saline with Tween-80): 0 of 10

O=C1C(=O)c2ccccc2C(O)=C1CC=C(Cl)Cl
survivor count [3]: 0 of 10 and 1 of 10

O=c1n(CC2CO2)c(=O)n(CC2CO2)c(=O)n1CC1CO1 (stereo unspecified)
T/C (dose: 30.0 mg/kg/injection, schedule: Q01DX009 (ip), vehicle: saline): 128 % of control

ClC(Cl)=C(Cl)Cl
survivor count (dose: 180.0 mg/kg/injection, schedule: Q01DX005 (ip), vehicle: saline with Tween-80): 0 of 10 and 2 of 10 | survivor count (dose: 360.0 mg/kg/injection, schedule: Q01DX005 (ip), vehicle: saline with Tween-80): 0 of 10 | survivor count (dose: 720.0 mg/kg/injection, schedule: Q01DX005 (ip), vehicle: saline with Tween-80): 0 of 10 | survivor count (dose: 1444.0 mg/kg/injection, schedule: Q01DX005 (ip), vehicle: saline with Tween-80): 0 of 10
